In the supplement of paper PMC10849652:
Some of the results follow.

By UniProt entry, the sequences of proteins in these tests, tags left out. Where a name states a change or a piece, a line headed by the entry shows the natural chain unless it says otherwise.
UniProt Q9NP50: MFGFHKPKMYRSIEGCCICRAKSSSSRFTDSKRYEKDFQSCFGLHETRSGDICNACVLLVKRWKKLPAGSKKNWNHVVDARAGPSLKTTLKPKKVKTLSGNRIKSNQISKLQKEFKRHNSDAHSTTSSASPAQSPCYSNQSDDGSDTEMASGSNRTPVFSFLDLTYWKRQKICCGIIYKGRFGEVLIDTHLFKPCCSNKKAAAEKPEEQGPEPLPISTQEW
UniProt P78314: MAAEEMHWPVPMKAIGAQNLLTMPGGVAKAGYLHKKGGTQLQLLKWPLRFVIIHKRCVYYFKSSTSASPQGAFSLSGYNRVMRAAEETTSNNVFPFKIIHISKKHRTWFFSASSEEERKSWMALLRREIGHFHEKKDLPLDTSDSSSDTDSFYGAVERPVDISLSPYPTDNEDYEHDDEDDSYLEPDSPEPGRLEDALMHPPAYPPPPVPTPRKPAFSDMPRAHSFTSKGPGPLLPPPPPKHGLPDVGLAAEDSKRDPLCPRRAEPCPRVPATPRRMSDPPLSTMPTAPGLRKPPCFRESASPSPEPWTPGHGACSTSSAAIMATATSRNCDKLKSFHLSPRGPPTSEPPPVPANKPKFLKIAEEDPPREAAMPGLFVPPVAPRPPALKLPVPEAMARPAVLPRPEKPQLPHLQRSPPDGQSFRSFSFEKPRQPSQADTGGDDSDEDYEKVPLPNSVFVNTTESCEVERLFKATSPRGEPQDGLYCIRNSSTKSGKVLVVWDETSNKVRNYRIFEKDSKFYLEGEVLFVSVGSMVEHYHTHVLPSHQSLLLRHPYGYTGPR
UniProt P55011: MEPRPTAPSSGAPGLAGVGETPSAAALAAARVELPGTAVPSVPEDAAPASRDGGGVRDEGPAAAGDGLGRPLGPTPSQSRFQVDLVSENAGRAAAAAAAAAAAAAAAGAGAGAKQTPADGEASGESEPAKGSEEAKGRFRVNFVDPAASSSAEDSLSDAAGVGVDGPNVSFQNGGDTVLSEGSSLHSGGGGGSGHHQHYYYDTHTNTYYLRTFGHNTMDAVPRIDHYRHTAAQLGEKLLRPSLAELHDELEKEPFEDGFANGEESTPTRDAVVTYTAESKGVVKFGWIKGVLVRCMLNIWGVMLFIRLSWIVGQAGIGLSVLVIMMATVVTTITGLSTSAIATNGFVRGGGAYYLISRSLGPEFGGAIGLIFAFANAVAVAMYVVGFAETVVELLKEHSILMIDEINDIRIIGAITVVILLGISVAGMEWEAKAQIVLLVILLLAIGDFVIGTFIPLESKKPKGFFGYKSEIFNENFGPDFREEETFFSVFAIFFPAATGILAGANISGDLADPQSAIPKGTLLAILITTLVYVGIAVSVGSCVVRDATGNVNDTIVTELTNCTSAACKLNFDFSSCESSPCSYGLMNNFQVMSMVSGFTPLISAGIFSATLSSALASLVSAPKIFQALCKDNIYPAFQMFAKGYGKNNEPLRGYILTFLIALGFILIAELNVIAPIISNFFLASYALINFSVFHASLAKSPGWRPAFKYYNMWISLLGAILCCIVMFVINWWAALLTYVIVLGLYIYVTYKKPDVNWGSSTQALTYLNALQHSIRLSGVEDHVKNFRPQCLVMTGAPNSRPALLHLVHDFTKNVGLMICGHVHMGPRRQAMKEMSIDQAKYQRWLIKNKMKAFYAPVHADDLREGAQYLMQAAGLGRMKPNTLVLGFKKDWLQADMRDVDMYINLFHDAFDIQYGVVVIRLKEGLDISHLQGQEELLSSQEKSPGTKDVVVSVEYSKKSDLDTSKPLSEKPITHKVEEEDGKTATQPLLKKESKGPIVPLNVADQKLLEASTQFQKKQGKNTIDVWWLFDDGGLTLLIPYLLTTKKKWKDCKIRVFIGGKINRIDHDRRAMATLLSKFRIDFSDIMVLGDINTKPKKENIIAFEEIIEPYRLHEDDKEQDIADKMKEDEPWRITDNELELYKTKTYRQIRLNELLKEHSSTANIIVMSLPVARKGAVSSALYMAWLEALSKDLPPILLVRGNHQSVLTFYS
UniProt P55822: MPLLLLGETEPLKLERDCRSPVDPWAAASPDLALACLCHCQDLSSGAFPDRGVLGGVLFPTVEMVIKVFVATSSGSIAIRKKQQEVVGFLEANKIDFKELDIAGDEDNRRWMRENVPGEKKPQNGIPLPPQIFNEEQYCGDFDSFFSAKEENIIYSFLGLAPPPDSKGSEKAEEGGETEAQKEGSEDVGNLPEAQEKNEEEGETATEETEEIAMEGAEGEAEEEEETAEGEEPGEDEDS
UniProt Q9BWJ5: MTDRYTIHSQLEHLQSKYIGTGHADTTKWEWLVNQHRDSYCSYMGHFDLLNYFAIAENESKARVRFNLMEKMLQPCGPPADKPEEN
UniProt Q5FBB7: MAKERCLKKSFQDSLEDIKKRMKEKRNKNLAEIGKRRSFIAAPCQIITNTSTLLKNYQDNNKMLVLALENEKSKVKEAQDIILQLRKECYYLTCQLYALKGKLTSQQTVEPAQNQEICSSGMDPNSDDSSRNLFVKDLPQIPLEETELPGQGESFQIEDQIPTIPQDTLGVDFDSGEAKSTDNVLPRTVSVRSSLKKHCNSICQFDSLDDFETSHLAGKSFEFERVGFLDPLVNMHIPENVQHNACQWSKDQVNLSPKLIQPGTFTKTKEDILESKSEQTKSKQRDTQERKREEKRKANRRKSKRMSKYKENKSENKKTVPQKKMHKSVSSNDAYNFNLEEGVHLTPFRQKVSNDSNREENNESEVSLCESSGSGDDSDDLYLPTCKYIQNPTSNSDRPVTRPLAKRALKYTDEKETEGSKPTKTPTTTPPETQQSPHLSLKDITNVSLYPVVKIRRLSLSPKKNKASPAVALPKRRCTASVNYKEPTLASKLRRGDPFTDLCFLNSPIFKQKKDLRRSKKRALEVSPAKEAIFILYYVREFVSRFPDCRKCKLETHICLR
UniProt Q7Z333: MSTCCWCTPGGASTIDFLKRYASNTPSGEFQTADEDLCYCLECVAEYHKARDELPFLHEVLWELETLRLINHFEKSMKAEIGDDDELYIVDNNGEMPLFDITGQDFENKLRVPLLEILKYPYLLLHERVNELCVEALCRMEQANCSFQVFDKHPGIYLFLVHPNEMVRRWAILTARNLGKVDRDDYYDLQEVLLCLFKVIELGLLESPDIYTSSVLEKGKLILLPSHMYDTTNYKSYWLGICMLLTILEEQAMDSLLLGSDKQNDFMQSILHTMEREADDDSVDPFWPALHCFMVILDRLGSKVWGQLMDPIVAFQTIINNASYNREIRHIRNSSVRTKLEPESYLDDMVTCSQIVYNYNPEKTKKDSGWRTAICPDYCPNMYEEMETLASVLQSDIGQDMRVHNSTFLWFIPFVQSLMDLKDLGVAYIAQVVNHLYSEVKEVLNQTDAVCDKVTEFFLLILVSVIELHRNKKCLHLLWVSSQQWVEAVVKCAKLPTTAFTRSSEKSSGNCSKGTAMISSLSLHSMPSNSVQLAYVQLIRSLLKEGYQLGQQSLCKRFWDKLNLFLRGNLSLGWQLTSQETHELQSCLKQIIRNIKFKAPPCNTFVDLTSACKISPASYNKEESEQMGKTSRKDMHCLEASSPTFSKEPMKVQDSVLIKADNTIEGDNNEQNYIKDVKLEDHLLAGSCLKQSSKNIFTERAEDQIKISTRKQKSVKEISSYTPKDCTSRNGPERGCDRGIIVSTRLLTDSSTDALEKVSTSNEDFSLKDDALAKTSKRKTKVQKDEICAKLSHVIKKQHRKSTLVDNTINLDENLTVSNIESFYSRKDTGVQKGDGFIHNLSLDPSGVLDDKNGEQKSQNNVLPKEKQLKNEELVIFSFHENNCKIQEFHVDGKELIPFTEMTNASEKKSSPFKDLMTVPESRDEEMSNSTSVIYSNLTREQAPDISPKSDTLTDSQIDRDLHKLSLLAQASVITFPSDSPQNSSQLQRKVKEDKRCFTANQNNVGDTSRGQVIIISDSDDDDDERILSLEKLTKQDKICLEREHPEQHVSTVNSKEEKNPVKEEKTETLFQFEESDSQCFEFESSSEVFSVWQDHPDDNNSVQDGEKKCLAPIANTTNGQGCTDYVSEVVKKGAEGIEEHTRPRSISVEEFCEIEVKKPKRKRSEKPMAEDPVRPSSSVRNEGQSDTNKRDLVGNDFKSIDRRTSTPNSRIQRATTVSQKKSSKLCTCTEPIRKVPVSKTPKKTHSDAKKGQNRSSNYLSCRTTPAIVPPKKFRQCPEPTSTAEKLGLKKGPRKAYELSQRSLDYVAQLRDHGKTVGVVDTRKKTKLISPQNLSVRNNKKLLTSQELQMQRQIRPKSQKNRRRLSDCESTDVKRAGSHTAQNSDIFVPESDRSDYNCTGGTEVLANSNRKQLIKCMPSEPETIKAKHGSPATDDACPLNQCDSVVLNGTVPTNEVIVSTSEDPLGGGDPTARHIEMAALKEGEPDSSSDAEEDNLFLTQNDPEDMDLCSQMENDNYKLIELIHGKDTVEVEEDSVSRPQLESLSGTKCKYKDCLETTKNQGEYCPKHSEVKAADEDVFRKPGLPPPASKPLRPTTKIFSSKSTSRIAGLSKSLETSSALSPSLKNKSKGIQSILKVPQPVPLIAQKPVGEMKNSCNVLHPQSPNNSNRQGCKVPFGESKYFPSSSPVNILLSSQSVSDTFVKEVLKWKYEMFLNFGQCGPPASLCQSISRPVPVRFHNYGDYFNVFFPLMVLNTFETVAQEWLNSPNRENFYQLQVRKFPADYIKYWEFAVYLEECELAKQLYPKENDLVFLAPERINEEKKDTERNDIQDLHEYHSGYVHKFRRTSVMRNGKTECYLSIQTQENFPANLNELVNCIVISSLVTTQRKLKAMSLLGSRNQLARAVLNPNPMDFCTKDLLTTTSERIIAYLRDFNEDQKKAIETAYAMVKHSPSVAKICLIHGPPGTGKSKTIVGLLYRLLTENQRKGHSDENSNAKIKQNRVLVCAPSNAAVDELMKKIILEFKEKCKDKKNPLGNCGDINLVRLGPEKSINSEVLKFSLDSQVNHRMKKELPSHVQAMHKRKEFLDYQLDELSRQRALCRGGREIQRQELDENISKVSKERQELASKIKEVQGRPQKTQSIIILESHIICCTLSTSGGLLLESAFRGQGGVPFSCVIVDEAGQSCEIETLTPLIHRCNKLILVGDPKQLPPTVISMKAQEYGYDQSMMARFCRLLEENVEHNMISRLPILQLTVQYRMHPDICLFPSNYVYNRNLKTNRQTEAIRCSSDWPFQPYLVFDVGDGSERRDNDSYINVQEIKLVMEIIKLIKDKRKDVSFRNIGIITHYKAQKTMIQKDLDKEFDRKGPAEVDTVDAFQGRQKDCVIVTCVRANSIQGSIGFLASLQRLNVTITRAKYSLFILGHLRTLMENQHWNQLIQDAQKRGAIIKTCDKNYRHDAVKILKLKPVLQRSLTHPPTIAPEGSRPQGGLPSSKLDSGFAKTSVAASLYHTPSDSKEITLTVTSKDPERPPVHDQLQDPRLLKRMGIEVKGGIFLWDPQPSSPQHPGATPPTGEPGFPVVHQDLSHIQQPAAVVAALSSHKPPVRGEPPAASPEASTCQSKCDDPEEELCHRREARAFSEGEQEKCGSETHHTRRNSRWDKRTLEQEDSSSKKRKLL
UniProt Q2VWA4: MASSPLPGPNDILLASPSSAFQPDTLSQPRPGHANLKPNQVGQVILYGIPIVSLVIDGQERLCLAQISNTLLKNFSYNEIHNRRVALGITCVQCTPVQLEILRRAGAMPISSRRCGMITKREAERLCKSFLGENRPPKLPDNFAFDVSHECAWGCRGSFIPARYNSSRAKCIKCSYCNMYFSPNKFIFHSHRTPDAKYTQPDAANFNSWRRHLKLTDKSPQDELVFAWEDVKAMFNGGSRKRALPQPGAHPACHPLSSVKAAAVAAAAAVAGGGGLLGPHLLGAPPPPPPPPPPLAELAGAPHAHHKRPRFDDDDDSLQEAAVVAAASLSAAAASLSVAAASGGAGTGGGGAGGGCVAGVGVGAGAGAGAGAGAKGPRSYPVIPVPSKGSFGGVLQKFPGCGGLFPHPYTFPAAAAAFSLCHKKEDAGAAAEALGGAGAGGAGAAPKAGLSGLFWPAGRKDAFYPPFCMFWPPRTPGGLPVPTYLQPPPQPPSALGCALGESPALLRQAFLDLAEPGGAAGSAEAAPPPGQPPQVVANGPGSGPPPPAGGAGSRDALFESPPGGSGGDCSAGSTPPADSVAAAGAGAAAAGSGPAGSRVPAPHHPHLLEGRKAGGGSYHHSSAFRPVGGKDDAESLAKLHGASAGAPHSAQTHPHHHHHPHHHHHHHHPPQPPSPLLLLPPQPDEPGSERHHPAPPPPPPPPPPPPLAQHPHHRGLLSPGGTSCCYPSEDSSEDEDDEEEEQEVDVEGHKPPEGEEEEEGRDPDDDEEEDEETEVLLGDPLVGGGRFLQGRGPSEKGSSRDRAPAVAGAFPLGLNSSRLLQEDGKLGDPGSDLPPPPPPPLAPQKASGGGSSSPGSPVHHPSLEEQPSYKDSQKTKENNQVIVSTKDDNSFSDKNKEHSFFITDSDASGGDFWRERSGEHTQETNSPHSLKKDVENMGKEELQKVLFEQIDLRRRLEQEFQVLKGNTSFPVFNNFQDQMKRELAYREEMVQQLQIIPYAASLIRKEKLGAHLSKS

Compound: O=C1NC(=O)C(c2cnc3ccccn23)=C1c1cn2c3c(cc(F)cc13)CN(C(=O)N1CCCCC1)CC2
Assay: log2 fold change, soluble protein after heating vs DMSO (PISA); higher = thermal stabilisation; K562 lysate, 10 uM; active = over 0.2 and 3.5 SD of the protein, either way, in both replicates (recomputed)
Outline: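 Thermal stability, expressed as log-two fold change relative to solvent controls, is given from duplicates. Crude K562 extract in PBS pH 7.4 with 1 mM MgCl2, at 1 mg/mL protein, was treated with 10 μM compound for 30 min and heated in aliquots for 3 min across 48°C-58°C. After pooling, adjustment to 0.5% NP-40 at 4°C and centrifugation at 21,000xg for 90 min, supernatant protein was measured by TMTpro 16plex LC-MS/MS with channel sums equalised.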

log2 fold change, inactive:
SF3B6 (UniProt Q9Y3B4) 0.007
SINHCAF (UniProt Q9NP50) -0.026
SLC16A1 (UniProt P53985) -0.01
SH3BP2 isoform 4 (UniProt P78314) -0.017
SLC20A1 (UniProt Q8WUM9) 0.021
SLC12A2 (UniProt P55011) 0.007
SERPINB6, A0A087X1N8 0.001
SH3BGR (UniProt P55822) -0.005
SF3B5 (UniProt Q9BWJ5) 0.092
SIL1 (UniProt Q9H173) 0.019
SF3A1 (UniProt Q15459) -0.024
SHFL (UniProt Q9NUL5) -0.019
SLC22A18 (UniProt Q96BI1) 0.004
SFR1 isoform 2 (UniProt Q86XK3) -0.026
SLC12A9 (UniProt Q9BXP2) 0.044
SGO1 (UniProt Q5FBB7) 0.036
SETX isoform 4 (UniProt Q7Z333) -0.005
SIRT6 (UniProt Q8N6T7) -0.085
SFN (UniProt P31947) -0.026
SETDB1 (UniProt Q15047) 0.005
SKOR2 (UniProt Q2VWA4) 0.182
SH3GLB1 isoform 2 (UniProt Q9Y371) -0.049
SERPINI1 (UniProt Q99574) -0.003

4 consecutive entries from above, for reference:
log2 fold change, inactive:
SLC12A9 (UniProt Q9BXP2) 0.044
SGO1 (UniProt Q5FBB7) 0.036
SETX isoform 4 (UniProt Q7Z333) -0.005
SIRT6 (UniProt Q8N6T7) -0.085
